From PMC9830510
These are yes or no findings as the source states them, for the method shown. Binding seen in cells or lysates may run through a third protein. A yes stands for co-enrichment or nearness to the bait. Other partners may have been found.

By UniProt entry, the sequences of proteins in these tests, tags left out. Residues count along the entry.
UniProt O75636, residues 24-299: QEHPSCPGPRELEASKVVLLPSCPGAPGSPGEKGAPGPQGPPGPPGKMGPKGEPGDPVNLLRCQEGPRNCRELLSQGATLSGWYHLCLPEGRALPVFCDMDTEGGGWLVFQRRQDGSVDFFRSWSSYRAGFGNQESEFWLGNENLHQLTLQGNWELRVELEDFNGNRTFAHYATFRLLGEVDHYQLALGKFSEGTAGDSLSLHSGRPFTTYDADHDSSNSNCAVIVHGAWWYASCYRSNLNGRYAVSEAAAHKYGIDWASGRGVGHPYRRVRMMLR

Target: Full-length FCN3 (Ficolin-3) with a C-terminal 6x His tag (human) (UniProt O75636)
Experiment: affinity purification with mass spectrometry; HCCLM3 cells transfected with His-FCN3; co-IP with His-tag antibody on magnetic beads; eluate separated on SDS-PAGE, silver staining and mass spectrometry

B1: SBDS (ribosome maturation factor), endogenous (protein, UniProt Q9Y3A5 1-250)
chain: MSIFTPTNQIRLTNVAVVRMKRAGKRFEIACYKNKVVGWRSGVEKDLDEVLQTHSVFVNVSKGQVAKKEDLISAFGTDDQTEICKQILTKGEVQVSDKERHTQLEQMFRDIATIVADKCVNPETKRPYTVILIERAMKDIHYSVKTNKSTKQQALEVIKQLKEKMKIERAHMRLRFILPVNEGKKLKEKLKPLIKVIESEDYGQQLEIVCLIDPGCFREIDELIKKETKGKGSLEVLNLKDVEEGDEKFE
binding: binds
